We go through 42 sequences from PMC7819943, “Rice protein-binding microarrays: a tool to detect cis-acting elements near promoter regions in rice”.

Some of the results follow.

This assay has as its target T1, OsSMF1 (Oryza sativa, UniProt Q6ZLB0 1-436).
T1 sequence: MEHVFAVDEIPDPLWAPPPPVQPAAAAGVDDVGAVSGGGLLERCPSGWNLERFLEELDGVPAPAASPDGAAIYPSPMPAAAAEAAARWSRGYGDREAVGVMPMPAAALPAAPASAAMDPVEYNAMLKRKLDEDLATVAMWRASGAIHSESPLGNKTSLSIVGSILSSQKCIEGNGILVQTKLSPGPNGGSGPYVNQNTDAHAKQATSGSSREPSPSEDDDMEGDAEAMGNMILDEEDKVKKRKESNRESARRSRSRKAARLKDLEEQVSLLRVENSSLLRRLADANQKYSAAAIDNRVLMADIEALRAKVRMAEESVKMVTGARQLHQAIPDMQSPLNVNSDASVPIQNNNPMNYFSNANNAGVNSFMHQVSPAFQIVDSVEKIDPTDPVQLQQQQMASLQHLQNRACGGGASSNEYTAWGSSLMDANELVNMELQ
Kind of assay: protein-binding microarray (RPBM); PBS, 2% BSA, 51.3 ng/ul salmon testes DNA, 50 uM zinc acetate, 200 nM TF, 25 C, 1 h; high values mean tight binding. The conditions noted are these: protein: recombinant; tags: N-terminal polyhistidine and DsRed monomer fusion (pET32a); chain copies: 2; label: CyDye5-dUTP incorporated in the synthesized complementary strand; 3' TTTTT single-stranded linker to array surface; dsDNA, one strand shown. An outline of the steps: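 Binding signal here means per-feature fluorescence intensity in arbitrary units. The values were read on an Axon 4000B scanner after a custom Agilent array, double-stranded by primer extension with Cy5-dUTP, was incubated with 200 nM protein at 25 °C for 1 h in PBS with 2% BSA, salmon testes DNA and 50 µM zinc acetate, then washed. The proteins were transcription factors with an N-terminal polyhistidine tag and DsRed, expressed in E. coli BL21-CodonPlus and purified on Ni–NTA.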
For the sequence “CGCGTCCTCCGCTCCACTGCACGTAAGCCCGTGCGATGCGCGGAGTCACCTAGTGCAG”, the binding signal was 4080 fluorescence intensity (a.u.).

As for “TGAATCTATACACTCTTCTATTCAGATTCGTTGTACTATGCGGAGTCACCTAGTGCAG”, the binding signal is 3870 fluorescence intensity (a.u.).

Regarding “CAATTTACAAATTTATCACATTATCATCGCGTCGATTATACGGAGTCACCTAGTGCAG”, the binding signal was 3160 fluorescence intensity (a.u.).

“AGGTTGGCCCAGCCTTGGCGTCATCTTCGTCTTCCCCAGCCGGAGTCACCTAGTGCAG”: the binding signal is 4020 fluorescence intensity (a.u.).

“TATATATGCACCGAGACACATATGAATCATCACACGTCTTCGGAGTCACCTAGTGCAG”: the binding signal was 3550 fluorescence intensity (a.u.).

Turning to “TCGGCCACTAGCATTTCGCCACGTGGACCGGACGCTCTGGCGGAGTCACCTAGTGCAG”, the binding signal is 15900 fluorescence intensity (a.u.).

“AGTTGCACTGTAATTATAGTGTAATTACGTGTAGTAACACCGGAGTCACCTAGTGCAG”: the binding signal is 4630 fluorescence intensity (a.u.).

As for “GCCGCCCGTCGCCGTCACACCCCTCTCACCACCACCACCACGGAGTCACCTAGTGCAG”, the binding signal was 3150 fluorescence intensity (a.u.).

Take “TTGGAGACGCGTCCCGTGACGTCATCGTCGTCCCCGACTCCGGAGTCACCTAGTGCAG”: the binding signal is 20000 fluorescence intensity (a.u.).

Turning to “TATAACAATTGTTTTATATTGCCACATATGGTGAGAAGCGCGGAGTCACCTAGTGCAG”, the binding signal was 6660 fluorescence intensity (a.u.).

Take “GCCTCTTAGCCCACGTGCGCCCTCCCGCGTCTCGCCCAAGCGGAGTCACCTAGTGCAG”: the binding signal was 4530 fluorescence intensity (a.u.).

On to “AAAAGCAAAAGCAAAAGAAACACGTCCTTATTCCTCTCTCCGGAGTCACCTAGTGCAG”, for which the binding signal is 3910 fluorescence intensity (a.u.).

Take “GCTATAAGTGTGTTGCCTACGTAGAATGCCACATCGGCCACGGAGTCACCTAGTGCAG”: the binding signal was 9120 fluorescence intensity (a.u.).

Take “AGAAAGAGGAGACTGACGTTGACATGTCAGCTGACATGTACGGAGTCACCTAGTGCAG”: the binding signal was 5560 fluorescence intensity (a.u.).

As to “ATGGTTGTGATTTGTTTAGGTCGAGTAAAGGAGGAATTCCCGGAGTCACCTAGTGCAG”, the binding signal was 3240 fluorescence intensity (a.u.).

Consider “TAATTCTTCATGGTGTAATGCTTTATAAATTGTGTCATCTCGGAGTCACCTAGTGCAG”, for which the binding signal is 3230 fluorescence intensity (a.u.).

As to “GCTTCTGCCTCCGGCGACACGTATGTCCATCTATCTCGCCCGGAGTCACCTAGTGCAG”, the binding signal was 10300 fluorescence intensity (a.u.).

Take “ATAACTCGCATGCTAACTTGAGACGATTGGACTCCTAACTCGGAGTCACCTAGTGCAG”: the binding signal was 32500 fluorescence intensity (a.u.).

For the sequence “TATTTTGTTATTTGTTGACGTGTATTTTAAAGAATGACTTCGGAGTCACCTAGTGCAG”, the binding signal was 9880 fluorescence intensity (a.u.).

On to “CCTTGTAACACTCGACCATAATCTCACACACAGGAGTAGGCGGAGTCACCTAGTGCAG”, for which the binding signal is 3600 fluorescence intensity (a.u.).

Take “TACAATAGGGACCCATCTGGTGTGTGCAGCGGCGCTCGTGCGGAGTCACCTAGTGCAG”: the binding signal is 3560 fluorescence intensity (a.u.).

Consider “ATTCGTCTCATAATTTACACGCAATCCGTGTAATTAATTACGGAGTCACCTAGTGCAG”, for which the binding signal is 3680 fluorescence intensity (a.u.).

For “CTTCAGCAGCGAAGCCGGTGACAGTCACGCTTTTATTTACCGGAGTCACCTAGTGCAG”, the binding signal is 3460 fluorescence intensity (a.u.).

Take “CACGCATAGAATACGTGTGTAGAGTATAGACACACACGTACGGAGTCACCTAGTGCAG”: the binding signal was 3300 fluorescence intensity (a.u.).

For the sequence “GTTGGGAGGTAGCCGTCAGCACCCACCCTCACTTTCGGCGCGGAGTCACCTAGTGCAG”, the binding signal is 5840 fluorescence intensity (a.u.).

“TCCGTCTCATTCATCACTAATCTATCTAAACTAAAGCCGACGGAGTCACCTAGTGCAG”: the binding signal is 3690 fluorescence intensity (a.u.).

As to “ACGCGCGAACGCCCGTCCGTTAAACCCACTCACCGCCATGCGGAGTCACCTAGTGCAG”, the binding signal was 3280 fluorescence intensity (a.u.).

For “ACCAGCCCATACGCGTGTACGGACCACAATTGCGGCCTTACGGAGTCACCTAGTGCAG”, the binding signal is 4360 fluorescence intensity (a.u.).

Consider “TGCGTATGATCCATACCCGATATAATGCGCGTAGACACAACGGAGTCACCTAGTGCAG”, for which the binding signal was 3560 fluorescence intensity (a.u.).

“GCCACTACCGCTCGCCCACACATTGTCATTATGTCAACCCCGGAGTCACCTAGTGCAG”: the binding signal was 4100 fluorescence intensity (a.u.).

As for “GTGCCGGCTTCGCATGCGTCAGGCGGGCAAACGGGTAGGTCGGAGTCACCTAGTGCAG”, the binding signal was 3420 fluorescence intensity (a.u.).

On to “CAACATTATCCCGAAGCGTCCCATCCACGCGACGCGGCACCGGAGTCACCTAGTGCAG”, for which the binding signal is 3540 fluorescence intensity (a.u.).

As for “GATCAAACCAGCGGCAGATGAGGGCGCAAAGAGAAAGAGCCGGAGTCACCTAGTGCAG”, the binding signal was 4210 fluorescence intensity (a.u.).

For “ACGCAAGGACGTCACTGCGGGTGCAGTATTAACACGCGGCCGGAGTCACCTAGTGCAG”, the binding signal is 4860 fluorescence intensity (a.u.).

With “CGGTGATCGGGCACCTCCACCTCATGTCCGGCATGCCGCACGGAGTCACCTAGTGCAG”, the binding signal is 3420 fluorescence intensity (a.u.).

In the case of “GACAAATGACTACAATAACCCAATTTAATAAACACAGTACCGGAGTCACCTAGTGCAG”, the binding signal was 3540 fluorescence intensity (a.u.).

“ACTGGTAACGGCTAGTCCGCCGCGCCACGAAACCTCCAAACGGAGTCACCTAGTGCAG”: the binding signal is 21400 fluorescence intensity (a.u.).

For the sequence “GCGTACGGCTGCCTAATGCAGAGCCTGACGTGGCGAGCTGCGGAGTCACCTAGTGCAG”, the binding signal was 17400 fluorescence intensity (a.u.).

For the sequence “AAGTGCTTTCAGCTGACTCCCGATGTTTATACATTTGCCACGGAGTCACCTAGTGCAG”, the binding signal is 3180 fluorescence intensity (a.u.).

“TAGACTAATTTTCGAAAGTTAAAACATTTGATGTCACGCACGGAGTCACCTAGTGCAG”: the binding signal was 4050 fluorescence intensity (a.u.).

Turning to “CATCATCAGGATCATCTCCCTGCCGCCGCCGCCGAGTGAACGGAGTCACCTAGTGCAG”, the binding signal is 4430 fluorescence intensity (a.u.).

For “ACCGATTAACCCTTAGTTCTGCCACCTCACTTCATATTACCGGAGTCACCTAGTGCAG”, the binding signal is 8680 fluorescence intensity (a.u.).
